{
  "source": "patent US11142539B2",
  "about": "“Phosphinogold(I) complexes and methods of treating cancer” (King Fahd University of Petroleum and Minerals, priority 2020, dated 2021)",
  "system": "A549 (human lung carcinoma) cell line",
  "assay": "Cell Titer-Glo luminescence-based cell growth inhibition assay, A549",
  "settings": "A549 cells, 72 hours incubation, spread in brackets",
  "description": "The cell growth inhibition effects of gold(I) complexes 1-4 and cisplatin were measured by the Cell Titer-Glo® luminescence-based assay against the A549 (human lung carcinoma), HeLa (human cervical cancer), and HepG2 (human liver cancer) cell lines according to manufacturer's protocol. Briefly, the cell suspensions were added to each well of 384-w plate at a suitable density (total volume of 40 μL). The margin wells of plate were filled with PBS buffer. The gold(I) complexes were added at various concentrations in triplicate (10 μL solutions of the complex added to the plate), then the plate was incubated for 72 hours in 5% CO2 incubator at 37° C. After that the Cell Titer reagent was added to each tested well and stirred for 2 minutes on an orbital shaker. […] Luminescence signals were measured on PHERAstar Plus. […] The potential effect of the testing complexes on cell growth inhibition expressed as IC50 values was calculated by the formula below: Cell growth Inhibition %=100-100*(Luminescencecomplex)/(LuminescenceDMSO) Cell viability %=100*(Luminescencecomplex)/(LuminescenceDMSO)\nThe gold(I) complexes 1-4 and cisplatin were examined for their cell growth inhibition effects against A549, HeLa, and HepG2 human cancer cell lines using Cell Titer-Glo® luminescence-based assay. […]",
  "data": [
    {"smiles": "N.N.[Cl][Pt][Cl]", "note": "[Cisplatin, cisplatin]", "values": [
      {"measurement": "IC50", "value": 13.8, "unit": "µM"}
    ]}
  ]
}
